Results: the supplement of paper PMC9262897, “Low-cost anti-mycobacterial drug discovery using engineered E. coli” (Nature Communications, 2022)
Counter-ions that a name gives are not always drawn. ± gives the standard deviation of the averaged measurements. The lowest values were mostly taken out for another list; the other results follow.

Tested on: E. coli TESEC Alr+ wild-type control
Assay: growth (OD600 after 10 h); higher = more growth (less inhibition)
Conditions: compound 0.1 mM; raw OD600 reference: median of DMSO wells 0.241, cell-free background 0.041
Method: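 TESEC Mtb Alr E. coli, or the Alr+ wild-type control, in 384-well plates with Prestwick library compounds at 0.1 mM and 1% DMSO, across arabinose induction levels of 1E3 to 1E7 nM. Growth is read as OD600 after 10 h at 37 °C in triplicate biological replicates.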

SMILES	growth
CN1[C@@H]2CC[C@H]1C[C@@H](OC(=O)C(O)c1ccccc1)C2 (mixture of isomers) [Homatropine hydrobromide (R,S)]	0.257 ± 0.0061
